This note sets out measurements from PMC11055835, “Small animal PET imaging with the ^68Ga-labeled pH (low) insertion peptide-like peptide YJL-4 in a triple-negative breast cancer mouse model” (EJNMMI Radiopharmacy and Chemistry, 2024).

Series [1] deals with MDA-MB-231 tumor-bearing nude mice. The series can be described thus: Small animal PET imaging. Type of series: in vivo, BALB/c nude mice. Particulars: 2 and 4 h after injection, approx. 7.4 MBq/200 μL via tail vein, static 10-min PET, n = 3. The procedure:
Human breast cancer cells (MDA-MB-231 cells from the Cell Bank of the Chinese Academy of Sciences) were cultured in high-glucose DMEM supplemented with 10% fetal bovine serum and 1% double antibiotic mixture (penicillin‒streptomycin mixture) at 37 °C in 5% CO2. Twenty-four four- to five-week-old female specific pathogen-free (SPF) BALB/c nude mice (Hangzhou Ziyuan Experimental Animal Technology Co., Ltd., China, license number: SCXK(Zhe) 2019–0004) were used to establish the MDA-MB-231 tumor model by subcutaneously inoculating 0.1 mL of cell suspension (50 µL of PBS + 50 µL of Matrigel) containing 1 × 10^6 MDA-MB-231 cells at the base of the right forelimb of each mouse. The animal studies were approved by the ethics committee of Qingdao University, and the management of the animals adhered to the animal ethics standards.
Six tumor-bearing nude mice were selected for imaging when the tumor diameter reached 0.8–1.0 cm. Mice were randomly divided into two groups: a YJL-4 group and a control group, with 3 mice per group; each group had two time points. Each tumor-bearing nude mouse was injected with approximately 7.4 MBq/200 μL of ^68Ga-YJL-4 or ^68Ga-kVar7 through the tail vein, and the mice were anesthetized with 2% isoflurane at 2 and 4 h after injection and imaged using static 10-min PET and moderate-resolution whole-body CT. […]

The nature of series [2]: Circular dichroism (CD) spectroscopy with POPC. Type of series: physicochemical. Particulars: peptide 0.1 mg/mL, POPC 2 mmol/L, phosphate buffer 10 mmol/L, pH 8.0 and 4.0, 25 °C, 190-260 nm.

Peptide text beside a SMILES is read from it. * marks the point of attachment. X1 = O=C(O)CN1CCN(CC(=O)O)CC(Cc2ccc(NC(=S)*)cc2)N(CC(=O)O)CC1; NOTA = O=C(O)CN1CCN(CC(=O)O)CCN(CC(=O)*)CC1; Ahx = NCCCCCC(=O)O

As to `CC(C)C[C@H](NC(=O)[C@H](CC(=O)O)NC(=O)[C@H](CC(C)C)NC(=O)[C@H](CC(C)C)NC(=O)[C@H](CC(C)C)NC(=O)[C@@H](NC(=O)[C@H](CC(=O)O)NC(=O)[C@@H](NC(=O)[C@@H]1CCCN1C(=O)[C@H](Cc1ccccc1)NC(=O)[C@H](CC(C)C)NC(=O)[C@H](CC(C)C)NC(=O)[C@H](CC(=O)O)NC(=O)[C@H](C)NC(=O)[C@H](Cc1ccc(O)cc1)NC(=O)[C@H](CCCNC(=N)N)NC(=O)[C@H](C)NC(=O)[C@H](Cc1c[nH]c2ccccc12)NC(=O)[C@@H]1CCCN1C(=O)[C@H](CC(N)=O)NC(=O)[C@H](CCC(N)=O)NC(=O)[C@H](CC(=O)O)NC(=O)[C@H](CC(=O)O)NC(=O)[C@H](CS)NC(=O)[C@H](C)NC(=O)CCCCCNC(=S)Nc1ccc(CC2CN(CC(=O)O)CCN(CC(=O)O)CCN2CC(=O)O)cc1)[C@@H](C)O)[C@@H](C)O)C(N)=O` (stereo partly shown) [^68Ga-YJL-4, metal not drawn] ({X1-Ahx}-ACDDQNPWARYADLLFPTDTLLLDL-NH2), the “Visualization of livers by PET” value in series [1] was “clearly visualized”.
As for `CC(C)C[C@H](NC(=O)[C@H](CCCCN)NC(=O)[C@H](CC(C)C)NC(=O)[C@H](CC(C)C)NC(=O)[C@H](CC(C)C)NC(=O)[C@@H](NC(=O)[C@H](CCCCN)NC(=O)[C@@H](NC(=O)[C@@H]1CCCN1C(=O)[C@H](Cc1ccccc1)NC(=O)[C@H](CC(C)C)NC(=O)[C@H](Cc1c[nH]c2ccccc12)NC(=O)[C@H](CCCCN)NC(=O)[C@H](CC(C)C)NC(=O)[C@H](Cc1ccc(O)cc1)NC(=O)[C@H](CCCNC(=N)N)NC(=O)[C@H](C)NC(=O)[C@H](Cc1c[nH]c2ccccc12)NC(=O)[C@@H]1CCCN1C(=O)[C@H](CC(N)=O)NC(=O)[C@H](CCC(N)=O)NC(=O)[C@H](CCC(=O)O)NC(=O)[C@H](CCC(=O)O)NC(=O)[C@H](CS)NC(=O)[C@H](C)NC(=O)CN1CCN(CC(=O)O)CCN(CC(=O)O)CC1)[C@@H](C)O)[C@@H](C)O)C(N)=O` [^68Ga-kVar7, metal not drawn, reference compound] ({NOTA}-ACEEQNPWARYLKWLFPTKTLLLKL-NH2; N-terminus assumed), the “Visualization of livers by PET” value in series [1] is given as “clearly visualized”.
For the compound ACDDQNPWARYADLLFPTDTLLLDL-NH2 [YJL-4], in series [2], the “Secondary structure by CD” value is recorded as “pH-dependent transition from the unstructured conformation to the α-helical structure”.
With “{NOTA}-ACEEQNPWARYLKWLFPTKTLLLKL-NH2 [kVar7, pH-insensitive control peptide (Sosunov et al. 2013), negative control, reference compound]”, the “Secondary structure by CD” value in series [2] is given as “β-sheet conformation”.
